Laboratory results taken from patent US20110150980A1 (VasoGenix Pharmaceuticals, Inc., priority 2009, published 2011).

Assay: general procedure: Fmoc solid-phase peptide synthesis; Rink amide resin; HBTU/HOBt (0.45 M) and DIEA
Details: whole synthesis, analytical HPLC, YMC-Pack ODS C18, 5 micron; MALDI-TOF for mass, acetate
In the case of “ACDTATCVTHRLADLLSRSGGVVKSNFVPTNVGSKAF-NH2 (ACDTATCVTHRLADLLSRSGGVVKSNFVPTNVGSKAF; cyclised or stapled)”, the “final HPLC purity” value is reported as 99%. With “ACDTATCVTHRLAGLLSRSGGVVKSNFVPTNVGSKAF-NH2 (ACDTATCVTHRLAGLLSRSGGVVKSNFVPTNVGSKAF; cyclised or stapled)” the “final HPLC purity” value was 98%. With “ACNTATCVTHRLAGLLSRSGGVVKSNFVPTNVGSKAF-NH2 (ACNTATCVTHRLAGLLSRSGGVVKSNFVPTNVGSKAF; cyclised or stapled)” the “final HPLC purity” value was 96%.
